Measurements published in patent EP0182608B1, “Polycyclic compounds, their preparation and formulations containing them” (priority 1984, dated 1986).

System: P388/0 tumor cells
Assay: Lymphocytic Leukemia P388/0 Test
Assay type: in vivo, CD2-F₁ mice
Conditions: intraperitoneally on days 1, 5 and 9 relative to tumor implant; mice injected i.p. with 10⁶ viable P388/0 cells on day 0
From the text: Methods for evaluating the antitumor activity of these compounds are essentially those used in the Tumor Panel by the Development Therapeutics Program, Division of Cancer Treatment, National Cancer Institute, A. Goldin, et al., Methods in Cancer Research, Vol. XVI, p. 165, Academic Press (1979). Some modifications, in dose level and schedule have been made to increase the testing efficiency.
CD2-F₁ mice, of the same sex weighing within 20±3g, are used for this test. Control and test animals are injected intraperitoneally with a suspension of 10⁶ viable P388/0 tumor cells on day 0. In each test several dose levels which bracket the LD₂₀ for the compound are evaluated; each dose level group contains 6 animals. The test compounds are prepared either in physiologic saline containing 0.05% Tween 80 or distilled water containing 5% dextrose and are administered intraperitoneally on days, 1, 5, and 9 relative to tumor implant. Doses are on a mg/kg basis according to individual animals' body weights. the day of death for each animal is recorded, the median identified for each group and the ratios of median survival time for treated (T)/control (C) groups are calculated. The criterion for activity is T/C x 100 ≧120%.

Row | Compound | Optimal Dose
1 | CC(CO)(CO)NCc1cc2c3ccccc3oc2c2ccccc12 [Example 5B] | 125 mg/kg
2 | CC(CO)(CO)NCc1cccc2cc3c(cc12)oc1ccccc13 [Example 6B, 2-[(Benzo[b]naphthol[2,3-d]furan-7-ylmethyl)amino]-2-methyl-1,3-propanediol methanesulphonate 1/4 hydrate] | 55 mg/kg
